Measured values reported in article PMC11705415.
Where two headings read alike, the source gives them in different places. These are yes or no findings as the source states them, for the method shown. In cells and extracts the contact can be indirect. These calls come from enrichment with a bait or labelling near it, and not all partners need be listed.

Amino acid sequences for entries named in this document (tags omitted). A change or cut given only in a name is not applied to a line headed by its entry.
UniProt P62069: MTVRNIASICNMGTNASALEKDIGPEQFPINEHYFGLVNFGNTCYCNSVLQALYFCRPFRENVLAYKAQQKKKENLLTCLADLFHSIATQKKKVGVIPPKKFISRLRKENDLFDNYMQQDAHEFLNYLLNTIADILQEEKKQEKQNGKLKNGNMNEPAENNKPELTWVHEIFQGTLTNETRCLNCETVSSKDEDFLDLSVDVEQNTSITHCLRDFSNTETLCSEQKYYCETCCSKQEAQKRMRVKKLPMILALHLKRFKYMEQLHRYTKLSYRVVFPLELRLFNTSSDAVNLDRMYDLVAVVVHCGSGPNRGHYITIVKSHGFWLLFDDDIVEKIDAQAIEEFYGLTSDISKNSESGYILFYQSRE
UniProt Q8BH57: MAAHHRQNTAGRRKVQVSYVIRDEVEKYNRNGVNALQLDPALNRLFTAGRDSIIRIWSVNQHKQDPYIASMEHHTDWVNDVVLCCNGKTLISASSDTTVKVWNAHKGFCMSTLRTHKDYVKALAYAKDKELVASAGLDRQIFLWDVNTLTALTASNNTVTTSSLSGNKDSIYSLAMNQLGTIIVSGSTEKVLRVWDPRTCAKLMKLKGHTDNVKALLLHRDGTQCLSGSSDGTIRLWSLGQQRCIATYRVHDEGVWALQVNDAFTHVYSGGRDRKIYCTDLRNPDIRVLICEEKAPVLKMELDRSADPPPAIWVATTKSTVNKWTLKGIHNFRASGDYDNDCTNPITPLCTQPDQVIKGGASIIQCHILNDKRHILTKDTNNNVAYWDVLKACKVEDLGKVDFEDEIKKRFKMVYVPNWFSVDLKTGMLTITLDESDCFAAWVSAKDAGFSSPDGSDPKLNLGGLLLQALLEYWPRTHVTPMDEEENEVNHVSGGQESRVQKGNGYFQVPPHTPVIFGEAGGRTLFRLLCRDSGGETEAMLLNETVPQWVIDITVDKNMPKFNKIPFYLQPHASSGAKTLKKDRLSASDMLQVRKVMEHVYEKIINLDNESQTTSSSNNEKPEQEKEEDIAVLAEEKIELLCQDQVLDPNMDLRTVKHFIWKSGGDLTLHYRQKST

What was measured:
Assay in all cases: proximity labelling; BioID: knock-in Neuro2a cells stably expressing USP46 (WT or ΔK92)-BirA(R118G)-HA, 50 μM biotin for 24 h; lysis in TNE buffer with 0.1% Triton X-100; streptavidin Mag Sepharose pull-down, SDS-PAGE, LC-MS/MS; proteins of the CRAPome list and of intact Neuro2a cells excluded
[1] = biological target: USP46-WT-BirA(R118G)-HA fusion protein (mouse) (UniProt P62069)
[2] = biological target: USP46-ΔK92-BirA(R118G)-HA fusion protein (mouse) (UniProt P62069)
[3] = biological target: USP46-WT-BirA(R118G)-HA fusion protein (mouse) (UniProt P62069); remark: listed apart in the source
[4] = biological target: USP46-ΔK92-BirA(R118G)-HA fusion protein (mouse) (UniProt P62069); remark: listed apart in the source

## WDR48 (from UniProt Q8BH57 1-676)
[1]
  binding: binds
[2]
  binding: binds

B1: WDR20 (protein, UniProt Q9D5R2 1-567)
chain: MATEGRGKETNEIKTHFTTREGLYRLLPHSEYSRPNRVPFNSQGSNPVRVSFVNLNDQTGNGNRLCFSVGRELYVYIYKGVRKAADLSKPIDKRIYKGTQPTCHDFNHLTATAESVSLLVGFSAGQVQLIDPIKKETSKLFNEERLIDKSRVTCVKWVPGSDSLFLVAHSSGNMYSYNVEHTYGTTAPHYQLLKQGESFAVHNCKSKSTRDLKWTVGEGALNEFAFSPDGKFLACVSQDGFLRVFNFDSAELHGTMKSYFGGLLCLCWSPDGKYIVTGGEDDLVTVWSFLDCRVIARGRGHKSWVSVVAFDPYTTSVEESDPMEFSDSDKNFQDLLHFGRDRANSTQSRLSKQNSTDSRPVSVTYRFGSVGQDTQLCLWDLTEDILFPHQPLSRARAHANVMNATGLPAGSNGSAVTTPGNSVPPPLPRSNSLPHSAVSNAASKGSVMDGAITSGVSKFALLSLHDRKERHHEKDRKRNHSMGHISSKSSDKLNLVNKAKTDPAKTLGTSLCPRMEDVPLLEPLICKKIAHERLTVLVFLEDCIVTACQEGFICTWARPGKVSKFQP
modifications: biotin (proximity-dependent biotinylation, sites not stated)
[3]
  binding: binds
[4]
  binding: binds

B2: DMWD (protein, UniProt Q08274 1-665)
chain: MAAGGAEGGPGPSAAMGDCAEIKSQFRTREGFYKLLPGDATRRSGPTSAQTPAPPQPTQPPPGPAAASGPGAAGPASSPPPAGPGPGPALPAVRLSLVRLGDPDGAGEPPSTPSGLGAGGDRVCFNLGRELYFYPGCCRSGSQRSIDLNKPIDKRIYKGTQPTCHDFNQFTAATETISLLVGFSAGQVQYLDLIKKDTSKLFNEERLIDKTKVTYLKWLPESESLFLASHASGHLYLYNVSHPCTSTPPQYSLLKQGEGFAVYAAKSKAPRNPLAKWAVGEGPLNEFAFSPDGRHLACVSQDGCLRVFHFDSMLLRGLMKSYFGGLLCVCWSPDGRYVVTGGEDDLVTVWSFTEGRVVARGHGHKSWVNAVAFDPYTTRAEEAASASADGDPSGEEEEPEVTSSDTGAPVSPLPKAGSITYRFGSAGQDTQFCLWDLTEDVLSPHPSLARTRTLPGTPGATPPASGSSRAGETGAGPLPRSLSRSNSLPHPAGGGKAGGPSASMEPGIPFSIGRFATLTLQERRDRGAEKEHKRYHSLGNISRGGSGGNSSNDKLSGPAPRSRLDPAKVLGTALCPRIHEVPLLEPLVCKKIAQERLTVLLFLEDCIITACQEGLICTWARPGKAFTDEETEAQAGQASWPRSPSKSVVEGISSQPGSSPSGTVV
modifications: biotin (proximity-dependent biotinylation, sites not stated)
[3]
  binding: binds
[4]
  binding: binds
